Measured data: PubChem BioAssay AID1224828 (NIAID, 2016)

- Aim: 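Find genes required for NF-kappaB p65 moving into the nucleus after LPS in mouse macrophages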 (primary screen)
- Cells: mouse RAW264.7 G9 macrophage reporter cells (GFP-p65, Tnf promoter-mCherry)
- Reagents: siRNA pool against mouse genes, 100 nM
- Timing: 2 days siRNA transfection, then 40 min LPS before fixation
- Treatment: LPS (Salmonella minnesota R595) at 10 ng/ml
- Read-out: 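Imaged p65 nuclear translocation ratio, normalised to the plate median, converted to robust z-scores and averaged across two replicates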
- Reading the numbers: p65 translocation robust z-score: higher = more nuclear NF-kappaB p65 after LPS than the plate median; nuclear/cytoplasmic p65 ratio: higher = more nuclear NF-kappaB p65
- Rule for the call: 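Active if robust z is above 3.3 (negative regulators) or below -1.56, the Tlr4 control median (positive regulators); activity score 50 or more; control wells not called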
- Calls: active = hit (p65 shift raised or lowered); inactive = no clear change
The whole screen tested about 17,000 reagents; this is an unselected part. In the full data, 762 (4.5%) were called active. 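Active calls include both raised and lowered p65 entry, mostly lowered; wells with fewer than 50 cells lack a z-score.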 Raw values are not corrected between plates. The numbers tell different reagents against one gene apart. No sequences are given here.

Cln8 (GeneID 26889): p65 translocation robust z-score = -0.3; nuclear/cytoplasmic p65 ratio, rep 1 = 1.44; nuclear/cytoplasmic p65 ratio, rep 2 = 1.33; low cell count flag = enough cells to score; activity call = inactive
Muc1 (GeneID 17829): p65 translocation robust z-score = 0.21; nuclear/cytoplasmic p65 ratio, rep 1 = 1.81; nuclear/cytoplasmic p65 ratio, rep 2 = 1.63; low cell count flag = enough cells to score; activity call = inactive
Rccd1 (GeneID 269955): p65 translocation robust z-score = 0.78; nuclear/cytoplasmic p65 ratio, rep 1 = 1.59; nuclear/cytoplasmic p65 ratio, rep 2 = 1.19; low cell count flag = enough cells to score; activity call = inactive
Pars2 (GeneID 230577): p65 translocation robust z-score = -1.85; nuclear/cytoplasmic p65 ratio, rep 1 = 1.43; nuclear/cytoplasmic p65 ratio, rep 2 = 1.39; low cell count flag = enough cells to score; activity call = active
Ccdc169 (GeneID 320604): p65 translocation robust z-score = 1.77; nuclear/cytoplasmic p65 ratio, rep 1 = 1.74; nuclear/cytoplasmic p65 ratio, rep 2 = 1.63; low cell count flag = enough cells to score; activity call = inactive
Plscr1 (GeneID 22038): p65 translocation robust z-score = 0.88; nuclear/cytoplasmic p65 ratio, rep 1 = 1.49; nuclear/cytoplasmic p65 ratio, rep 2 = 1.29; low cell count flag = enough cells to score; activity call = inactive
Tsx (GeneID 22127): nuclear/cytoplasmic p65 ratio, rep 1 = 1.63; nuclear/cytoplasmic p65 ratio, rep 2 = 1.36; low cell count flag = fewer than 50 cells per well; well left out of scoring; activity call = inactive
Adck1 (GeneID 72113): p65 translocation robust z-score = 0.05; nuclear/cytoplasmic p65 ratio, rep 1 = 1.56; nuclear/cytoplasmic p65 ratio, rep 2 = 1.75; low cell count flag = enough cells to score; activity call = inactive
Or8k35 (GeneID 404473): p65 translocation robust z-score = 1.13; nuclear/cytoplasmic p65 ratio, rep 1 = 1.83; nuclear/cytoplasmic p65 ratio, rep 2 = 1.75; low cell count flag = enough cells to score; activity call = inactive
Rspo1 (GeneID 192199): nuclear/cytoplasmic p65 ratio, rep 1 = 0; nuclear/cytoplasmic p65 ratio, rep 2 = 1.13; low cell count flag = fewer than 50 cells per well; well left out of scoring; activity call = inactive
Hnf4g (GeneID 30942): p65 translocation robust z-score = -0.38; nuclear/cytoplasmic p65 ratio, rep 1 = 1.43; nuclear/cytoplasmic p65 ratio, rep 2 = 1.28; low cell count flag = enough cells to score; activity call = inactive
Ccn5 (GeneID 22403): p65 translocation robust z-score = 0.11; nuclear/cytoplasmic p65 ratio, rep 1 = 1.58; nuclear/cytoplasmic p65 ratio, rep 2 = 1.57; low cell count flag = enough cells to score; activity call = inactive
Drc11l (GeneID 231045): nuclear/cytoplasmic p65 ratio, rep 1 = 1.18; nuclear/cytoplasmic p65 ratio, rep 2 = 0; low cell count flag = fewer than 50 cells per well; well left out of scoring; activity call = inactive
Ccnd3 (GeneID 12445): p65 translocation robust z-score = 0.04; nuclear/cytoplasmic p65 ratio, rep 1 = 1.4; nuclear/cytoplasmic p65 ratio, rep 2 = 1.38; low cell count flag = enough cells to score; activity call = inactive
Ric8b (GeneID 237422): p65 translocation robust z-score = -0.66; nuclear/cytoplasmic p65 ratio, rep 1 = 1.58; nuclear/cytoplasmic p65 ratio, rep 2 = 1.48; low cell count flag = enough cells to score; activity call = inactive
Ebf3 (GeneID 13593): nuclear/cytoplasmic p65 ratio, rep 1 = 1.22; nuclear/cytoplasmic p65 ratio, rep 2 = 1.23; low cell count flag = fewer than 50 cells per well; well left out of scoring; activity call = inactive
Sez6l2 (GeneID 233878): p65 translocation robust z-score = 1.05; nuclear/cytoplasmic p65 ratio, rep 1 = 1.66; nuclear/cytoplasmic p65 ratio, rep 2 = 1.53; low cell count flag = enough cells to score; activity call = inactive

Records listed above with an active call, once more:
Pars2 (GeneID 230577): p65 translocation robust z-score = -1.85; nuclear/cytoplasmic p65 ratio, rep 1 = 1.43; nuclear/cytoplasmic p65 ratio, rep 2 = 1.39; low cell count flag = enough cells to score; activity call = active

The listing continues:
Gmnn (GeneID 57441): p65 translocation robust z-score = -0.61; nuclear/cytoplasmic p65 ratio, rep 1 = 1.32; nuclear/cytoplasmic p65 ratio, rep 2 = 1.33; low cell count flag = enough cells to score; activity call = inactive
Xpo7 (GeneID 65246) #1: p65 translocation robust z-score = 0.07; nuclear/cytoplasmic p65 ratio, rep 1 = 1.36; nuclear/cytoplasmic p65 ratio, rep 2 = 1.26; low cell count flag = enough cells to score; activity call = inactive
Xpo7 (GeneID 65246) #2: nuclear/cytoplasmic p65 ratio, rep 1 = 1.01; nuclear/cytoplasmic p65 ratio, rep 2 = 1.03; low cell count flag = fewer than 50 cells per well; well left out of scoring; activity call = inactive
Chrna5 (GeneID 110835): p65 translocation robust z-score = -1.33; nuclear/cytoplasmic p65 ratio, rep 1 = 1.32; nuclear/cytoplasmic p65 ratio, rep 2 = 1.18; low cell count flag = enough cells to score; activity call = inactive
Abcc3 (GeneID 76408): p65 translocation robust z-score = -0.44; nuclear/cytoplasmic p65 ratio, rep 1 = 1.5; nuclear/cytoplasmic p65 ratio, rep 2 = 1.6; low cell count flag = enough cells to score; activity call = inactive
Copg1 (GeneID 54161): p65 translocation robust z-score = -1.26; nuclear/cytoplasmic p65 ratio, rep 1 = 1.38; nuclear/cytoplasmic p65 ratio, rep 2 = 1.58; low cell count flag = enough cells to score; activity call = inactive
Sgk3 (GeneID 170755): p65 translocation robust z-score = 0.12; nuclear/cytoplasmic p65 ratio, rep 1 = 1.71; nuclear/cytoplasmic p65 ratio, rep 2 = 1.39; low cell count flag = enough cells to score; activity call = inactive
Gabarapl2 (GeneID 93739): p65 translocation robust z-score = 0.22; nuclear/cytoplasmic p65 ratio, rep 1 = 1.56; nuclear/cytoplasmic p65 ratio, rep 2 = 1.55; low cell count flag = enough cells to score; activity call = inactive
Vmn1r233 (GeneID 171236): p65 translocation robust z-score = 1.42; nuclear/cytoplasmic p65 ratio, rep 1 = 1.69; nuclear/cytoplasmic p65 ratio, rep 2 = 1.82; low cell count flag = enough cells to score; activity call = inactive
Pitpnc1 (GeneID 71795): p65 translocation robust z-score = 0.67; nuclear/cytoplasmic p65 ratio, rep 1 = 1.59; nuclear/cytoplasmic p65 ratio, rep 2 = 1.59; low cell count flag = enough cells to score; activity call = inactive
